In the supplement of paper PMC10849652:
The list shows a part of the results.

The chains behind the UniProt entries cited, without tags or fusion partners. Where a name states a change or a piece, a line headed by the entry shows the natural chain unless it says otherwise.
UniProt Q14457, whole entry, looked up: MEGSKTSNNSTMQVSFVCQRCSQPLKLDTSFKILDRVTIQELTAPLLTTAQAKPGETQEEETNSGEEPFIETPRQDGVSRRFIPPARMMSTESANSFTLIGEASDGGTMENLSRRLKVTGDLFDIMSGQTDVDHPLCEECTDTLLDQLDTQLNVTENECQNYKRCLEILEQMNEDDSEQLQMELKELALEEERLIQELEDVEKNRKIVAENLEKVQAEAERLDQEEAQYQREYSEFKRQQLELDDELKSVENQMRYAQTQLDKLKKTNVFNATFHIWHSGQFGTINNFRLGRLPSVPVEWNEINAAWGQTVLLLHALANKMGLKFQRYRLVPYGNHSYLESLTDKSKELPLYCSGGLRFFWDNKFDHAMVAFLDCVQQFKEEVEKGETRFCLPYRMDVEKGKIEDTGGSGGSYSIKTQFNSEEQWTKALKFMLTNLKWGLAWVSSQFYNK
UniProt Q9P287, whole entry, looked up: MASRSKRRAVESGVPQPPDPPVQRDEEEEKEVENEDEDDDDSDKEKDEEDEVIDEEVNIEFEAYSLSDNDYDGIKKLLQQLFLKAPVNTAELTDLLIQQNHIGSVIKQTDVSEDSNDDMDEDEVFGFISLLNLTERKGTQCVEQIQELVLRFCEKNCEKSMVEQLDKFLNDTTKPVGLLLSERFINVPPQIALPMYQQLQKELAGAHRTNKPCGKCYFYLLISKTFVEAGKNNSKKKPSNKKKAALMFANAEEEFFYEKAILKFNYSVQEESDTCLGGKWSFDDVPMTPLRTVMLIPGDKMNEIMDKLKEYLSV
UniProt Q96GX2: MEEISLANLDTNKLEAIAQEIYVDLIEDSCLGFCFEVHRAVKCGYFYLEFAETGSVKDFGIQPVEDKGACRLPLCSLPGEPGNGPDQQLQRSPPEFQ
UniProt Q12981: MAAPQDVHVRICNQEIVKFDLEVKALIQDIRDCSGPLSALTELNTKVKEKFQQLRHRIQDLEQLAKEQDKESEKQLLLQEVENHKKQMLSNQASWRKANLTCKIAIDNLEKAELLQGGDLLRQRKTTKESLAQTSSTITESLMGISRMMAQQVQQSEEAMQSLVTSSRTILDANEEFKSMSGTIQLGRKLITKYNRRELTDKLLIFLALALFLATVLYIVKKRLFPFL
UniProt Q9NW68: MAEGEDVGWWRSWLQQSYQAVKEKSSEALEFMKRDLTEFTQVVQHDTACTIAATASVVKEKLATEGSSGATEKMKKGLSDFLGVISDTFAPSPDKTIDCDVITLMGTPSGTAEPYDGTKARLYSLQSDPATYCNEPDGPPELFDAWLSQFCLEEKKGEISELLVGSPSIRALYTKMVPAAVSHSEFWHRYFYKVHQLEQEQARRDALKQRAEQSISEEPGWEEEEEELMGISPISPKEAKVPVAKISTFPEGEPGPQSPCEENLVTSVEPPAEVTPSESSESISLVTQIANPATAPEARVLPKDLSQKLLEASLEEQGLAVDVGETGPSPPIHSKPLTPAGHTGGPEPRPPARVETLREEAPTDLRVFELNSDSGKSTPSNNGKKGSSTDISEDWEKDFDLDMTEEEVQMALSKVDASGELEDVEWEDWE
UniProt Q8NFC6: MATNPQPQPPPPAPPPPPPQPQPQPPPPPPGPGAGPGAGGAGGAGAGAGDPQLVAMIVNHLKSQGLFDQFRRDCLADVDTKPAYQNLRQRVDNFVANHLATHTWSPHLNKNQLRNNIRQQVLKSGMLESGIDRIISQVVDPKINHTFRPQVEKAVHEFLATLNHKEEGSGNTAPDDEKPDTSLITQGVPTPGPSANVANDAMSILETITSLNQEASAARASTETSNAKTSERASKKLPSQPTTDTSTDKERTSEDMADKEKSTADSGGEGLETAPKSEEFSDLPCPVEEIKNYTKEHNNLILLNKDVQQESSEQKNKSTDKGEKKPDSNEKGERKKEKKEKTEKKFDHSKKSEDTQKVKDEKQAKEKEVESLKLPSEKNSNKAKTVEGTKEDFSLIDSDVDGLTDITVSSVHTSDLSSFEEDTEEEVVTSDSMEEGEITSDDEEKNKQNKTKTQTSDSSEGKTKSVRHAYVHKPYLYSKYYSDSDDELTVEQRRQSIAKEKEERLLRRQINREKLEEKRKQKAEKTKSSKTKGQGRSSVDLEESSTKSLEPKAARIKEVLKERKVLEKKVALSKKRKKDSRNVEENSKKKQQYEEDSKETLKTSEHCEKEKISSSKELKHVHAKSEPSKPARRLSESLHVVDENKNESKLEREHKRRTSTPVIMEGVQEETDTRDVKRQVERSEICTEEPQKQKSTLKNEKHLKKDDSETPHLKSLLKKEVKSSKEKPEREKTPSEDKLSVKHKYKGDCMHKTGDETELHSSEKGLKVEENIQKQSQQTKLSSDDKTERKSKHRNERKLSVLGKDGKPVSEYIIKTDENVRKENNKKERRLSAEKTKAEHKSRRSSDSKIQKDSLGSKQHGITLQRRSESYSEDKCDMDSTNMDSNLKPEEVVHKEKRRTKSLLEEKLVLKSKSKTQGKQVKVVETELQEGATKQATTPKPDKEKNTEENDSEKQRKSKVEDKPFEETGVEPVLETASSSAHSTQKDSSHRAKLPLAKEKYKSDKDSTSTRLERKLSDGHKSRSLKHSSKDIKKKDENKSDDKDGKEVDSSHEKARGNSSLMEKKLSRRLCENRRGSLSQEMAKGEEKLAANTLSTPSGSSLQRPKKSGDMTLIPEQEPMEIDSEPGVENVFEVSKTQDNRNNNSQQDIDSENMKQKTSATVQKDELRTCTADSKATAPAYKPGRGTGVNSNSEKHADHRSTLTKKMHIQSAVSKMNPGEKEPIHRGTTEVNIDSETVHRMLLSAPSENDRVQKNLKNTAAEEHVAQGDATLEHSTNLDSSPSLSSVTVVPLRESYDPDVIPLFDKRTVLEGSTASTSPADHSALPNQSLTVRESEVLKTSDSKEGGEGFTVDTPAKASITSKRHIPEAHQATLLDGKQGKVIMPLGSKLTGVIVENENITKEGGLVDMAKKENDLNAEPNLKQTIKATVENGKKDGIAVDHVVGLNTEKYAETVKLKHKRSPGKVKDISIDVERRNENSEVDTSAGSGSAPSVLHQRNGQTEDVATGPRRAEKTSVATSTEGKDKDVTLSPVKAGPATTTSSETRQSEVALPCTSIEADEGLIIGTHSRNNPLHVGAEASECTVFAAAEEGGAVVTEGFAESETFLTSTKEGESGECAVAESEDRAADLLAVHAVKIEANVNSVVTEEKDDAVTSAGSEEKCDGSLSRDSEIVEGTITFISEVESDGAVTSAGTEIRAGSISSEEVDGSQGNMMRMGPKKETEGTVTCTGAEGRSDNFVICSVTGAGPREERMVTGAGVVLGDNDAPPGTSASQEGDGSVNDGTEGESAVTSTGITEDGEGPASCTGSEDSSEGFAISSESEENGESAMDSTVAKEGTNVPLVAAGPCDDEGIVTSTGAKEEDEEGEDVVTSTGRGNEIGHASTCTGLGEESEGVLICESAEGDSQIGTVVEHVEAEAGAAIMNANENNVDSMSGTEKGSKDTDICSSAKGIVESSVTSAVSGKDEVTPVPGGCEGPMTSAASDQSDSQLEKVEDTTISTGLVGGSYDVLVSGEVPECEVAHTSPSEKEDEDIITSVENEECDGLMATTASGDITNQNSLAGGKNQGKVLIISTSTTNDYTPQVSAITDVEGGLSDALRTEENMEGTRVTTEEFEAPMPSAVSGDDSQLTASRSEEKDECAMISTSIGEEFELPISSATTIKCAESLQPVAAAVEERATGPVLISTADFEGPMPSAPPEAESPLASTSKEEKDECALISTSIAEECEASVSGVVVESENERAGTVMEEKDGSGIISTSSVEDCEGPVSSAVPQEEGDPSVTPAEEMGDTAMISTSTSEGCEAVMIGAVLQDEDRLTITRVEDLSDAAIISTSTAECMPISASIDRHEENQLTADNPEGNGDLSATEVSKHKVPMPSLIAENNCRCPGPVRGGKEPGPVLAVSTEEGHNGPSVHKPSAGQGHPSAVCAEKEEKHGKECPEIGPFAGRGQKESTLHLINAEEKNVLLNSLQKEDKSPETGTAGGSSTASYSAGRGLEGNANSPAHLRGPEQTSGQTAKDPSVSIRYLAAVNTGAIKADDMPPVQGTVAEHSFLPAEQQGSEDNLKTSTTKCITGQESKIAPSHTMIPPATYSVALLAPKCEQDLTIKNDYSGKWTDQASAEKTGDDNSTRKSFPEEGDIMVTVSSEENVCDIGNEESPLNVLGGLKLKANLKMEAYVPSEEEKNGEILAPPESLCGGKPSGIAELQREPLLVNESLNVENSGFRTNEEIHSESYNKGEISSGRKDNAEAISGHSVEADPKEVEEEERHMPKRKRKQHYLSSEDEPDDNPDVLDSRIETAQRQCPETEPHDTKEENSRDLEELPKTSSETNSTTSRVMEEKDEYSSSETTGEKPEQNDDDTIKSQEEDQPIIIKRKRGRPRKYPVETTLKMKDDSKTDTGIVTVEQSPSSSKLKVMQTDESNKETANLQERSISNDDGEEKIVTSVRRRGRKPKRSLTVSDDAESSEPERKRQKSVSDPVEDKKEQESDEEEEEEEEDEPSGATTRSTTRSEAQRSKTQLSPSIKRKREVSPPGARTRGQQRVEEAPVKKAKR
UniProt P21953: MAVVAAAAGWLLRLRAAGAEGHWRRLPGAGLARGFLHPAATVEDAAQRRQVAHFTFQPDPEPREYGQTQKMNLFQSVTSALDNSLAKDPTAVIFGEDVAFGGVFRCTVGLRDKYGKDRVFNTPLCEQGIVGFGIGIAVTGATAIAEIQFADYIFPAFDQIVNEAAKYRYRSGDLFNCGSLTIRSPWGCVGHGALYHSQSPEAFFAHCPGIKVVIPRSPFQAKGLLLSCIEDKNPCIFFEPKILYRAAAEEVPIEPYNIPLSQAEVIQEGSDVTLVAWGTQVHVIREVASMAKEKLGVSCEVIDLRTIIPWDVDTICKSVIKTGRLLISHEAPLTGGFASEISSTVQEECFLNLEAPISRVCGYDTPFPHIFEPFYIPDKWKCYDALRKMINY
UniProt O75531: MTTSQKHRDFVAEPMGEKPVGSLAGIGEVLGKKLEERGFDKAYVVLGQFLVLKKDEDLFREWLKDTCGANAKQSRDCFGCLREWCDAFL
UniProt O75882: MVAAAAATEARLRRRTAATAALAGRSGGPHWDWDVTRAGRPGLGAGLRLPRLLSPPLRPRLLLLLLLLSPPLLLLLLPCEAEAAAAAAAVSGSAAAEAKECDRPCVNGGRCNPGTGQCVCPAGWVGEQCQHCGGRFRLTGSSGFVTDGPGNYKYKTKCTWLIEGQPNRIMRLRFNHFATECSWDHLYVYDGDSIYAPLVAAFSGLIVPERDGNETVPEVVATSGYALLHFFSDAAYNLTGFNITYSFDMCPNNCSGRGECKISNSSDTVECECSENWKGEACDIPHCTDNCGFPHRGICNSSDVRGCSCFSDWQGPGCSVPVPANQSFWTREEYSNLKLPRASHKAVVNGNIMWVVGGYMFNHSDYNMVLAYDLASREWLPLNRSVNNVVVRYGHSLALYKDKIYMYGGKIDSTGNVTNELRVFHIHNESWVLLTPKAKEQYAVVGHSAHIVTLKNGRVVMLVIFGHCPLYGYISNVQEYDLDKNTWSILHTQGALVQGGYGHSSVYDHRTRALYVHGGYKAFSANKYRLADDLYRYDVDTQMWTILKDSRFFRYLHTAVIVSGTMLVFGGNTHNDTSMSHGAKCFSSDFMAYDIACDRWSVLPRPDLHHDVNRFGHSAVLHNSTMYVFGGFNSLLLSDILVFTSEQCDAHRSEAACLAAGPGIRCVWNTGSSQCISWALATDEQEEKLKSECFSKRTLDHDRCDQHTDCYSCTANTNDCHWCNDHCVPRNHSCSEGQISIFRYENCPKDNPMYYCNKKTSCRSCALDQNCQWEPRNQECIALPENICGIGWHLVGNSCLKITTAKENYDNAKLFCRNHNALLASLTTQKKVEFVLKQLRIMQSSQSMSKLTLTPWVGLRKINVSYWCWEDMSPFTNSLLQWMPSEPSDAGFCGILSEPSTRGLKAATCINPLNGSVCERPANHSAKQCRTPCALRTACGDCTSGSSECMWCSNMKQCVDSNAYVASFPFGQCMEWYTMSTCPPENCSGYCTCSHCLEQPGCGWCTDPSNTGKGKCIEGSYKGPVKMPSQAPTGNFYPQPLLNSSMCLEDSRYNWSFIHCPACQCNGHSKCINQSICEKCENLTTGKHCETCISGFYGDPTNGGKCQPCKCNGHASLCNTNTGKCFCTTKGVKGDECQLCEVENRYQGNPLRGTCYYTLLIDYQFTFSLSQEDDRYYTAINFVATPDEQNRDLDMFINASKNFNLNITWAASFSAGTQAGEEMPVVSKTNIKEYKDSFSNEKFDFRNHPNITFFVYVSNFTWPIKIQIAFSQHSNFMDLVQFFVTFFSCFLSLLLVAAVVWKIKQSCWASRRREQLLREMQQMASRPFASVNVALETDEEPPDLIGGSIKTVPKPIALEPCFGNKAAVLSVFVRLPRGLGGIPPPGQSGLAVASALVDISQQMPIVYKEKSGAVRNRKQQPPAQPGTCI

What was measured:
Test in all cases: log2 fold change, soluble protein after heating vs DMSO (PISA); higher = thermal stabilisation; K562 cells, 10 uM, 30 min; active = over 0.2 and 3.5 SD of the protein, either way, in both replicates (recomputed)
[1] = compound: CS(=O)(=O)c1ccc(-c2cnc(N)c(C(=O)Nc3ccccc3)n2)cc1
In short: (§1)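 K562 cells at 2×10^6 cells/mL were treated for 30 min with 10 μM compound, and aliquots were heated for 3 min over 48°C-58°C before pooling. Extraction used PBS with 0.5% NP-40 at 4°C, and soluble protein was the supernatant after 21,000xg for 90 min, measured by TMTpro 16plex LC-MS/MS with channel sums equalised. Thermal stability values, relative to control samples and from duplicates, are log2 fold changes.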

crizotinib = compound: C[C@@H](Oc1cc(-c2cnn(C3CCNCC3)c2)cnc1N)c1c(Cl)ccc(F)c1Cl [crizotinib]
In short: as §1

[2] = compound: C[C@@H]1COCCN1C2=NC(=NC(=C2)C3(CC3)S(=O)(=O)C)C4=C5C=CNC5=CC=C4
In short: as §1

[3] = compound: C[C@H](C1=CC=C(C=C1)C(=O)NC2=C3C=CNC3=NC=C2)N
In short: as §1

duvelisib = compound: C[C@H](Nc1ncnc2nc[nH]c12)c1cc2cccc(Cl)c2c(=O)n1-c1ccccc1 [duvelisib]
In short: as §1

tozasertib = compound: Cc1cc(Nc2cc(N3CCN(C)CC3)nc(Sc3ccc(NC(=O)C4CC4)cc3)n2)n[nH]1 [tozasertib]
In short: as §1

[4] = compound: Cc1cc(SCc2sc(-c3ccc(C(F)(F)F)cc3)nc2C)ccc1OCC(=O)O
In short: as §1

doramapimod = compound: Cc1ccc(-n2nc(C(C)(C)C)cc2NC(=O)Nc2ccc(OCCN3CCOCC3)c3ccccc23)cc1 [doramapimod]
In short: as §1

gandotinib = compound: Cc1cc(Nc2cc(CN3CCOCC3)c3nc(C)c(Cc4ccc(Cl)cc4F)n3n2)n[nH]1 [gandotinib]
In short: as §1

ispinesib = compound: Cc1ccc(C(=O)N(CCCN)[C@@H](c2nc3cc(Cl)ccc3c(=O)n2Cc2ccccc2)C(C)C)cc1 [ispinesib]
In short: as §1

Target | log2 fold change [1] | log2 fold change (crizotinib) | log2 fold change [2] | log2 fold change [3] | log2 fold change (duvelisib) | log2 fold change (tozasertib) | log2 fold change [4] | log2 fold change (doramapimod) | log2 fold change (gandotinib) | log2 fold change (ispinesib)
BCOR (UniProt Q6W2J9) | inactive: 0.324 | inactive: 0.063 | inactive: 0.012 | inactive: 0.384 | inactive: 0.223 | inactive: -0.137 | inactive: -0.045 | inactive: -0.076 | – | –
BLOC1S2 (UniProt Q6QNY1) | inactive: 0.054 | inactive: -0.01 | inactive: -0.032 | inactive: 0.023 | inactive: 0.069 | inactive: -0.014 | inactive: -0.055 | inactive: -0.283 | inactive: -0.103 | inactive: -0.007
BECN1 (UniProt Q14457) | inactive: 0.141 | inactive: -0.126 | inactive: 0.043 | inactive: 0.093 | active: 0.283 | – | inactive: -0.066 | inactive: -0.004 | inactive: 0.138 | inactive: -0.019
ATXN2L (UniProt Q8WWM7) | inactive: -0.039 | inactive: -0.084 | inactive: -0.121 | inactive: -0.003 | inactive: -0.035 | inactive: -0.018 | inactive: 0.009 | inactive: 0.025 | inactive: -0.037 | inactive: -0.053
BCCIP (UniProt Q9P287) | inactive: -0.015 | inactive: -0.02 | inactive: -0.044 | inactive: 0.074 | – | – | inactive: 0.037 | inactive: 0.01 | inactive: -0.093 | inactive: 0.001
BABAM2 (UniProt Q9NXR7) | inactive: 0.018 | inactive: 0.003 | inactive: 0.011 | inactive: -0.049 | inactive: -0.018 | inactive: -0.036 | inactive: -0.044 | inactive: -0.021 | inactive: 0.106 | inactive: 0.015
BORCS5 (UniProt Q969J3) | inactive: -0.047 | inactive: -0.172 | inactive: 0.183 | inactive: -0.087 | inactive: 0.114 | inactive: -0.023 | inactive: 0.069 | inactive: 0.043 | inactive: 0.143 | inactive: -0.063
AVL9 (UniProt Q8NBF6) | inactive: 0 | inactive: -0.181 | inactive: 0.07 | inactive: -0.061 | inactive: 0.054 | inactive: -0.011 | inactive: 0.013 | inactive: -0.023 | inactive: -0.08 | inactive: -0.082
BCAR1 isoform 6 (UniProt P56945) | inactive: 0.031 | inactive: -0.104 | inactive: -0.054 | inactive: 0.08 | inactive: 0.019 | inactive: 0.053 | inactive: -0.022 | inactive: 0.038 | inactive: -0.081 | inactive: -0.033
ATXN7L3B (UniProt Q96GX2) | inactive: 0.005 | inactive: 0.049 | inactive: 0.102 | inactive: -0.044 | inactive: 0.231 | inactive: 0.098 | inactive: -0.042 | inactive: 0.037 | inactive: 0.019 | inactive: 0.06
B3GNT2 (UniProt Q9NY97) | inactive: 0.032 | inactive: -0.007 | inactive: 0.046 | inactive: -0.038 | inactive: -0.034 | inactive: 0.017 | inactive: 0 | inactive: 0.105 | inactive: -0.022 | inactive: -0.032
BCR (UniProt P11274) | inactive: 0.115 | inactive: 0.005 | inactive: -0.075 | inactive: 0.399 | inactive: -0.205 | inactive: -0.062 | inactive: 0.084 | inactive: 0.227 | inactive: 0 | inactive: -0.287
B3GNTL1 (UniProt Q67FW5) | inactive: 0.021 | inactive: 0.024 | inactive: 0.262 | inactive: 0.01 | inactive: 0.057 | inactive: -0.129 | inactive: -0.036 | inactive: 0.078 | inactive: -0.145 | inactive: -0.118
BCAP31 isoform 2 (UniProt P51572) | inactive: -0.022 | inactive: 0.087 | inactive: 0.002 | inactive: -0.025 | inactive: -0.016 | inactive: -0.009 | inactive: -0.03 | inactive: -0.01 | inactive: -0.041 | inactive: 0.002
BAG1 (UniProt Q99933) | inactive: 0 | inactive: -0.009 | inactive: 0.048 | inactive: -0.001 | inactive: 0.088 | inactive: -0.026 | inactive: -0.01 | inactive: 0.037 | inactive: 0.035 | inactive: -0.002
BNIP1 (UniProt Q12981) | inactive: 0 | inactive: -0.036 | inactive: 0.042 | inactive: -0.027 | inactive: 0.056 | inactive: -0.008 | inactive: 0.016 | inactive: -0.02 | inactive: -0.012 | inactive: -0.114
BAIAP2L1 (UniProt Q9UHR4) | inactive: 0.012 | inactive: 0.023 | inactive: 0.007 | inactive: -0.052 | inactive: 0.042 | inactive: -0.018 | inactive: -0.025 | inactive: -0.001 | inactive: -0.013 | inactive: -0.025
BSDC1 (UniProt Q9NW68) | inactive: -0.031 | inactive: 0.064 | inactive: 0.013 | inactive: -0.008 | inactive: 0.009 | inactive: 0.015 | inactive: 0.013 | inactive: -0.026 | inactive: 0.008 | inactive: -0.044
BOD1L1 (UniProt Q8NFC6) | inactive: -0.005 | inactive: 0 | inactive: -0.07 | inactive: 0.028 | inactive: -0.02 | inactive: -0.009 | inactive: -0.034 | inactive: 0.061 | inactive: 0.046 | inactive: -0.041
BCAT1 (UniProt P54687) | inactive: -0.005 | inactive: 0.019 | inactive: 0.02 | inactive: -0.019 | inactive: 0.034 | inactive: -0.024 | inactive: -0.007 | inactive: -0.028 | inactive: -0.013 | inactive: 0.006
BLOC1S6 (UniProt Q9UL45) | inactive: 0.016 | inactive: 0.032 | inactive: 0.061 | inactive: -0.048 | inactive: 0.02 | inactive: -0.002 | inactive: -0.051 | inactive: 0.035 | – | inactive: 0.022
BLVRB (UniProt P30043) | inactive: 0.04 | inactive: -0.006 | inactive: 0.036 | inactive: -0.081 | – | – | inactive: 0.002 | inactive: -0.027 | inactive: -0.085 | inactive: -0.012
BCL9 (UniProt O00512) | inactive: -0.02 | inactive: 0.032 | inactive: 0.061 | inactive: 0.018 | inactive: 0.094 | inactive: 0.03 | inactive: -0.044 | inactive: -0.1 | inactive: 0.067 | inactive: 0.115
BCL10 (UniProt O95999) | inactive: -0.026 | inactive: 0.014 | inactive: 0.024 | inactive: 0.13 | inactive: -0.014 | inactive: 0.085 | inactive: -0.006 | inactive: -0.038 | inactive: -0.084 | inactive: -0.074
B4GALT7 (UniProt Q9UBV7) | inactive: -0.047 | inactive: 0.041 | inactive: 0.169 | inactive: -0.104 | inactive: 0.039 | inactive: -0.089 | inactive: 0.112 | inactive: -0.04 | inactive: 0.397 | inactive: -0.027
BCAT2 (UniProt O15382) | inactive: 0.006 | inactive: 0.029 | inactive: -0.009 | inactive: 0.001 | inactive: -0.016 | inactive: -0.008 | inactive: -0.045 | inactive: 0.009 | inactive: -0.024 | inactive: 0.012
BCKDHB (UniProt P21953) | inactive: -0.025 | inactive: 0.012 | inactive: -0.051 | inactive: -0.024 | inactive: 0.048 | inactive: 0.057 | inactive: -0.025 | inactive: -0.048 | inactive: 0.063 | inactive: -0.12
BANF1 (UniProt O75531) | inactive: 0.032 | inactive: 0.159 | inactive: 0.187 | inactive: -0.097 | inactive: 0.196 | inactive: 0.008 | inactive: 0.059 | inactive: 0.085 | inactive: 0.072 | inactive: 0.221
B3GLCT (UniProt Q6Y288) | inactive: 0.009 | inactive: 0.023 | inactive: 0.007 | inactive: 0.03 | inactive: -0.006 | inactive: -0.007 | inactive: -0.019 | inactive: 0.003 | inactive: -0.063 | inactive: -0.048
ATRN (UniProt O75882) | inactive: -0.049 | inactive: 0.01 | inactive: 0.116 | inactive: 0.087 | – | – | inactive: 0.071 | inactive: -0.238 | inactive: -0.002 | –

Shown in CSV form: part of the list above
Target,log2 fold change [1],log2 fold change (crizotinib),log2 fold change [2],log2 fold change [3],log2 fold change (duvelisib),log2 fold change (tozasertib),log2 fold change [4],log2 fold change (doramapimod),log2 fold change (gandotinib),log2 fold change (ispinesib)
BNIP1 (UniProt Q12981),inactive: 0,inactive: -0.036,inactive: 0.042,inactive: -0.027,inactive: 0.056,inactive: -0.008,inactive: 0.016,inactive: -0.02,inactive: -0.012,inactive: -0.114
BCAT2 (UniProt O15382),inactive: 0.006,inactive: 0.029,inactive: -0.009,inactive: 0.001,inactive: -0.016,inactive: -0.008,inactive: -0.045,inactive: 0.009,inactive: -0.024,inactive: 0.012
